Data published in doi:10.1101/2022.11.01.514535.
These are yes or no findings as the source states them, for the method shown. Binding seen in cells or lysates may run through a third protein. For some assays here: Tags and fused reporters may be left off the sequences shown.

Legend:
FBXL3 = biological target: T1, FBXL3 (UniProt Q9UKT7); assay: co-IP
T1 sequence: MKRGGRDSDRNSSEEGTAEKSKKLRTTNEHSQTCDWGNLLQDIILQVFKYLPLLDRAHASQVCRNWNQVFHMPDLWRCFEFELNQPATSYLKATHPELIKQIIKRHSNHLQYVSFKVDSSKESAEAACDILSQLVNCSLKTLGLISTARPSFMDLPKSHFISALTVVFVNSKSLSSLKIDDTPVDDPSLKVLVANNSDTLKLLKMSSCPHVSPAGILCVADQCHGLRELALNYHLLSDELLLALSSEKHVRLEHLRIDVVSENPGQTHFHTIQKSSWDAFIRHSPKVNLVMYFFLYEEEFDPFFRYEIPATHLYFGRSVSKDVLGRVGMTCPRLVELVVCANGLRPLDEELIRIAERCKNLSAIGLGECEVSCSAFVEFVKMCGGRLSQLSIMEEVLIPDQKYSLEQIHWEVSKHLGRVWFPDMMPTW

[1] = biological target: T2, FBXL4-Flag (F-box/LRR-repeat protein 4) (UniProt Q9UKA2); assay: co-IP
T2 sequence: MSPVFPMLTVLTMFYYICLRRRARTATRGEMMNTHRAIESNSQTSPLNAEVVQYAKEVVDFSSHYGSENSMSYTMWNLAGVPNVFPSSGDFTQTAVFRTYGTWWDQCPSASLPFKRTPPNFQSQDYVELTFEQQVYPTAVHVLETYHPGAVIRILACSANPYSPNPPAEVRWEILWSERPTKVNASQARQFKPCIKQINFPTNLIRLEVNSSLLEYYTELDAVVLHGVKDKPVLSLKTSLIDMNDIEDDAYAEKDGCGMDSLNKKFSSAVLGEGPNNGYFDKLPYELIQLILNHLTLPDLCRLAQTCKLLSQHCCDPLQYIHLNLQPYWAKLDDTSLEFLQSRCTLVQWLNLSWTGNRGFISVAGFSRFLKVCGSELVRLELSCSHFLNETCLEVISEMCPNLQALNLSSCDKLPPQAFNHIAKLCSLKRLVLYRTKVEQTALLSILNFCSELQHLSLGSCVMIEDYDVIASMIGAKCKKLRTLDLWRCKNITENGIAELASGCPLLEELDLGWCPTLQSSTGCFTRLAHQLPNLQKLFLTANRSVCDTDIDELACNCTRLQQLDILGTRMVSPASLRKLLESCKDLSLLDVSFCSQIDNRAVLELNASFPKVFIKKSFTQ

- binding (FBXL3): no binding
- binding [1]: no binding
Substance: mitochondrial ribosomal protein L45 (MRPL45), endogenous (human (endogenous in HEK and HeLa))
